No constants are given. Whether binding was seen depends on the method and setting. Binding can be weak; no strength is given.
How the values were obtained:
[1] = molecular target: plasmin-treated CDCP1 (human); experiment: BLI; fl-CDCP1 ectodomain treated with plasmin
[2] = molecular target: plasmin-treated CDCP1 (human); experiment: BLI (Octet), plasmin-treated fl-CDCP1 ectodomain on the sensor, IgG CL03 as analyte; concentration not given

B1: CL03 IgG (antibody, V domains shown)
VH: EVQLVESGGGLVQPGGSLRLSCAASGFNFSSYSIHWVRQAPGKGLEWVASIYPYSGSTYYADSVKGRFTISADTSKNTAYLQMNSLRAEDTAVYYCARQSHSYYSHTWWVSYGMDYWGQGTLVTVSS
VL: DIQMTQSPSSLSASVGDRVTITCRASQSVSSAVAWYQQKPGKAPKLLIYSASSLYSGVPSRFSGSRSGTDFTLTISSLQPEDFATYYCQQSGQRPITFGQGTKVEIKR
notes: also called IgG CL03
- binding [1]: binds
- binding [2]: binds
